Square brackets hold non-standard residues; d marks the D form. Peptide text beside a SMILES is read from it. * marks the point of attachment. Palmitoyl = CCCCCCCCCCCCCCCC(=O)*; Lauroyl = CCCCCCCCCCCC(=O)*; Octanoyl = CCCCCCCC(=O)*; Aun = NCCCCCCCCCCC(=O)O; Aib = CC(C)(N)C(=O)O
Assays:
[1] = test system: HaCaT cell line; assay: MTT cytotoxicity assay on HaCaT cells; conditions: ratio between cytotoxicity (HaCaT IC50, 50% reduction of viability) and MIC on at least five out of six bacterial species
[2] = test system: ram red blood cells (RBCs); conditions: MHC = lowest concentration inducing 10% haemolysis of RBCs; ratio to MIC on at least five out of six bacterial species
Experimental: The lytic potential towards eukaryotic cell membranes was assessed by measuring the release of haemoglobin from commercial ram red blood cells (RBCs) (Microbiol s.r.l., Cagliari, Italy) after exposure to the peptides. First, erythrocytes were isolated by centrifugation, washed with PBS and then suspended at 8% (v/v) in PBS. Secondly, 100 µL erythrocytes suspension was added into each well of a 96-well microplate. Then, 100 µL peptide solution was added to each well at different concentrations (the final concentration of erythrocytes suspension was 4% v/v), and the plates were incubated for 1 h at 37 °C and centrifuged at 1000 g for 10 min. Finally, 100 µL aliquots of supernatant were transferred to fresh 96-well microplate, and the release of haemoglobin was monitored by measuring the absorbance at 540 nm with Tecan microplate reader (Tecan Trading AG, Switzerland). 0% and 100% haemolysis were determined in PBS and 1% Triton X-100, respectively.

Compound | Minimum selectivity index IC50 /MIC [1] | Minimum selectivity index MHC/MIC [2]
CCCCCCCCCCCC(=O)N[C@@H](CCCCN)C(=O)N[C@@H](CCCNC(=N)N)C(=O)N[C@@H](CC(C)C)C(=O)N[C@@H](CCCCN)C(=O)N[C@@H](CCCCN)C(=O)N[C@H](C(=O)NCC(=O)N[C@@H](CCCCN)C(=O)N[C@H](C(=O)N[C@@H](CC(C)C)C(=O)N[C@@H](CCCCN)C(=O)N[C@@H](Cc1c[nH]c2ccccc12)C(=O)N[C@H](C(=O)N[C@@H](C)C(=O)N[C@@H](CCCCN)C(=O)N[C@H](C(=O)N[C@H](C(=O)NCC(=O)N[C@@H](CO)C(=O)N[C@H](C(N)=O)[C@@H](C)CC)C(C)C)[C@@H](C)CC)[C@@H](C)CC)C(C)C)[C@@H](C)CC [d] (Lauroyl-KRLKKIGKVLKWIAKIVGSI-NH2) | < 0.2 | ≤ 0.1
Ac-KRLKKIGKVLKWIPPIVGSI-NH2 [a] | > 16 | > 8
Ac-KRLKKIGKVLKWIAKIVGSI-NH2 [b] | ≥ 1.6 | ≥ 1
CC[C@H](C)[C@H](NC(=O)[C@H](CO)NC(=O)CNC(=O)[C@@H](NC(=O)[C@@H](NC(=O)[C@H](CCCCN)NC(=O)[C@H](C)NC(=O)[C@@H](NC(=O)[C@H](Cc1c[nH]c2ccccc12)NC(=O)[C@H](CCCCN)NC(=O)[C@H](CC(C)C)NC(=O)[C@@H](NC(=O)[C@H](CCCCN)NC(=O)CNC(=O)[C@@H](NC(=O)[C@H](CCCCN)NC(=O)[C@H](CCCCN)NC(=O)[C@H](CC(C)C)NC(=O)[C@H](CCCNC(=N)N)NC(=O)[C@H](CCCCN)NC(C)=O)[C@@H](C)CC)C(C)C)[C@@H](C)CC)[C@@H](C)CC)C(C)C)C(=O)NCCCCCCCCCCC(N)=O [f] (Ac-KRLKKIGKVLKWIAKIVGSI[Aun]-NH2) | < 1 | < 0.5
CC[C@H](C)[C@H](NC(=O)[C@H](Cc1c[nH]c2ccccc12)NC(=O)[C@H](CCCCN)NC(=O)C(C)(C)NC(=O)[C@@H](NC(=O)[C@H](CCCCN)NC(=O)CNC(=O)[C@@H](NC(=O)[C@H](CCCCN)NC(=O)[C@H](CCCCN)NC(=O)[C@H](CC(C)C)NC(=O)[C@H](CCCNC(=N)N)NC(=O)[C@H](CCCCN)NC(C)=O)[C@@H](C)CC)C(C)C)C(N)=O [h] (Ac-KRLKKIGKV[Aib]KWI-NH2) | ≥ 6.8 | > 4
CCCCCCCCCCCCCCCC(=O)N[C@@H](CCCCN)C(=O)N[C@@H](CCCNC(=N)N)C(=O)N[C@@H](CC(C)C)C(=O)N[C@@H](CCCCN)C(=O)N[C@@H](CCCCN)C(=O)N[C@H](C(=O)NCC(=O)N[C@@H](CCCCN)C(=O)N[C@H](C(=O)N[C@@H](CC(C)C)C(=O)N[C@@H](CCCCN)C(=O)N[C@@H](Cc1c[nH]c2ccccc12)C(=O)N[C@H](C(=O)N[C@@H](C)C(=O)N[C@@H](CCCCN)C(=O)N[C@H](C(=O)N[C@H](C(=O)NCC(=O)N[C@@H](CO)C(=O)N[C@H](C(N)=O)[C@@H](C)CC)C(C)C)[C@@H](C)CC)[C@@H](C)CC)C(C)C)[C@@H](C)CC [e] (Palmitoyl-KRLKKIGKVLKWIAKIVGSI-NH2) | < 0.2 | < 0.2
CCCCCCCC(=O)N[C@@H](CCCCN)C(=O)N[C@@H](CCCNC(=N)N)C(=O)N[C@@H](CC(C)C)C(=O)N[C@@H](CCCCN)C(=O)N[C@@H](CCCCN)C(=O)N[C@H](C(=O)NCC(=O)N[C@@H](CCCCN)C(=O)N[C@H](C(=O)N[C@@H](CC(C)C)C(=O)N[C@@H](CCCCN)C(=O)N[C@@H](Cc1c[nH]c2ccccc12)C(=O)N[C@H](C(=O)N[C@@H](C)C(=O)N[C@@H](CCCCN)C(=O)N[C@H](C(=O)N[C@H](C(=O)NCC(=O)N[C@@H](CO)C(=O)N[C@H](C(N)=O)[C@@H](C)CC)C(C)C)[C@@H](C)CC)[C@@H](C)CC)C(C)C)[C@@H](C)CC [c] (Octanoyl-KRLKKIGKVLKWIAKIVGSI-NH2) | ≤ 1.6 | < 0.5
Ac-KRLKKIGKVLKWI-NH2 [g] | > 8 | > 4

— PMC10499915 (Scientific Reports, 2023)
